Results from patent publication US20010036947A1.
For part of its entries the source gives two or more results. The list is limited to them. An entry can have further records. Values given together do not match, cause unknown; they may come from other doses, times, organisms or constructs than stated.

Tested on: C57 black 6 mice
Experiment: In vivo hair generation test, Experiment A
Settings: 3 μM topical, 3 applications every 48 hours, after six weeks; listed as GPI 1102

## CCC(C)(C)C(=O)C(=O)N1CCCCC1C(=O)OC(CCCc1ccccc1)CCCc1ccccc1 (stereo not shown)
  percent of shaved area covered by new hair growth: ≤ 50% and 90%
